# The M2OR odorant receptor database
# The entries are a selection whose mix differs from that of the whole data set. Calls are pooled over several reports, among them a noisy single-well screen. Some of the results follow.
# What was measured:
# Conditions in all cases: stereoisomer not certain
# O13C5 = test system: T1, O13C5
# T1 sequence (whole entry): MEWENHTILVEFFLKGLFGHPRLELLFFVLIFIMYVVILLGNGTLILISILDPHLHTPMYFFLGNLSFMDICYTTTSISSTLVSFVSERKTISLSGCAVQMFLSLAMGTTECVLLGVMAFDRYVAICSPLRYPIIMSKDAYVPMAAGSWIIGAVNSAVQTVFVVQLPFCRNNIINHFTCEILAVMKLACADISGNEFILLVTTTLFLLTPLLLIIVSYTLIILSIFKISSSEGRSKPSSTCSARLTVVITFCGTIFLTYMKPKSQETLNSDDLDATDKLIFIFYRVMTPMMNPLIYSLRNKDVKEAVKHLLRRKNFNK
# Method in brief: (§1)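 Assay methods differ from source to source, frequently being transient luciferase assays in mammalian cell lines. For each receptor–molecule pair, the label responsive (active) applies when the original authors judged the measured signal statistically different from baseline, and non-responsive (inactive) applies otherwise.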
# O13C7 = test system: T2, O13C7
# T2 sequence (whole entry): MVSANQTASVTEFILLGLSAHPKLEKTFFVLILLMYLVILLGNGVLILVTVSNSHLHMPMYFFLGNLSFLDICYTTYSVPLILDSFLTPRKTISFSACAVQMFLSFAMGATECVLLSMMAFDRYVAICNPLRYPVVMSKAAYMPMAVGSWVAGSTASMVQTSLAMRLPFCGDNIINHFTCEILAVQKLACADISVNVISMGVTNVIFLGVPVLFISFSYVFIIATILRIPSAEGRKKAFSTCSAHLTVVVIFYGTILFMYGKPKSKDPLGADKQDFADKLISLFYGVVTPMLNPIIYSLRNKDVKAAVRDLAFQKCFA
# Method in brief: as §1
# O13C9 = test system: T3, O13C9
# T3 sequence (whole entry): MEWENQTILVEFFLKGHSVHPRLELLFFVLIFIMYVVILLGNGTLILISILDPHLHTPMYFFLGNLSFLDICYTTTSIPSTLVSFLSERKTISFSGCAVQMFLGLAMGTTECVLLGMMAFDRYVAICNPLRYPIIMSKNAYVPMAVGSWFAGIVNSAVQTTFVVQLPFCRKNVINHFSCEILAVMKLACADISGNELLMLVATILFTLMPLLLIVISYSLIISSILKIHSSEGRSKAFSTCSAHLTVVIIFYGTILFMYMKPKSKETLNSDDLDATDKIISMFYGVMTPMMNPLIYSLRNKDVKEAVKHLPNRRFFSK
# Method in brief: as §1
# O13D1 [1] = test system: T4, O13D1
# T4 sequence (whole entry): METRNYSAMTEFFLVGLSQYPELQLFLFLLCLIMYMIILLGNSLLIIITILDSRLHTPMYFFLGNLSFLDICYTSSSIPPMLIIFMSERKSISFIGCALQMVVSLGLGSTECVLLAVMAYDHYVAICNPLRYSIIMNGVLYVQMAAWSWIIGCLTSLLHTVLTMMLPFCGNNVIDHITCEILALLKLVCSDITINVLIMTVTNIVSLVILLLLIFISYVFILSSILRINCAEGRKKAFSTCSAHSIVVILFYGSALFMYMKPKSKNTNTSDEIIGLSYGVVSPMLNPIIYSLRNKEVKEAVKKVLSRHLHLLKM
# Method in brief: as §1
# O13D1 [2] = test system: T5, O13D1; remark: listed apart in the source
# T5 sequence (whole entry): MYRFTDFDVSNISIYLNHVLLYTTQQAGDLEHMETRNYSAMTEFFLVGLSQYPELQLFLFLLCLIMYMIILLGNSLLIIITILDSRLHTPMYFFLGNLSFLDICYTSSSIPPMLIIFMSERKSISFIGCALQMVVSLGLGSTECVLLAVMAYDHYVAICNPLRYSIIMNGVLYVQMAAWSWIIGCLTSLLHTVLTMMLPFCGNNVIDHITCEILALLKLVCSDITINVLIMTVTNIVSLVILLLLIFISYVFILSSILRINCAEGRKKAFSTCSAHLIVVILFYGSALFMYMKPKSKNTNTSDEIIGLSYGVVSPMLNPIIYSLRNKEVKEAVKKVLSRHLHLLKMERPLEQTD
# Method in brief: as §1
# O13F1 = test system: T6, O13F1
# T6 sequence (whole entry): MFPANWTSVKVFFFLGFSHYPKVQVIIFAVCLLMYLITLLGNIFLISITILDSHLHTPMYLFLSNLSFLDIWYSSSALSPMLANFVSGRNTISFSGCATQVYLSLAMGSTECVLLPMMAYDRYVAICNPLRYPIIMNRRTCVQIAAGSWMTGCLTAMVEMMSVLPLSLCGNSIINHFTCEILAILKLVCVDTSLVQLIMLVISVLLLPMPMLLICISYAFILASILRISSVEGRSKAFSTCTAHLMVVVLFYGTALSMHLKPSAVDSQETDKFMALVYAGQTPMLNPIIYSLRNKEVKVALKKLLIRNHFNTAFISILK
# Method in brief: as §1
# O13G1 = test system: T7, O13G1
# T7 sequence (whole entry): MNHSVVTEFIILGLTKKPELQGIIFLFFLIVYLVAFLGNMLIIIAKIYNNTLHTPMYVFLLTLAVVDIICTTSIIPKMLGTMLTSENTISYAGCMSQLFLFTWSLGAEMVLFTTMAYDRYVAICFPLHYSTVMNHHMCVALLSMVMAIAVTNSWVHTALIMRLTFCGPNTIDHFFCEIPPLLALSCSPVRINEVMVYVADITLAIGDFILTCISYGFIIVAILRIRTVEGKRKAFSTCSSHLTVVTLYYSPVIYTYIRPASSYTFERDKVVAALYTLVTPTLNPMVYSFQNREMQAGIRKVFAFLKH
# Method in brief: as §1
# O13J1 = test system: T8, O13J1
# T8 sequence (whole entry): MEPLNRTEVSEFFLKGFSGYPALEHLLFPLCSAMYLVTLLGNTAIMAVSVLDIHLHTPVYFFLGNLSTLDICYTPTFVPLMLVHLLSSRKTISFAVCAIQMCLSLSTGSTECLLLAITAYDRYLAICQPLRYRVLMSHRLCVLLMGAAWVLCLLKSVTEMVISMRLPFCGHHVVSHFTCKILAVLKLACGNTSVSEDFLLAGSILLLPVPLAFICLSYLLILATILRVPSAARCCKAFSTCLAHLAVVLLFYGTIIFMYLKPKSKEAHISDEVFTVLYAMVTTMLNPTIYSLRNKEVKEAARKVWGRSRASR
# Method in brief: as §1
# O1440 [3] = test system: T9, O1440
# T9 sequence (whole entry): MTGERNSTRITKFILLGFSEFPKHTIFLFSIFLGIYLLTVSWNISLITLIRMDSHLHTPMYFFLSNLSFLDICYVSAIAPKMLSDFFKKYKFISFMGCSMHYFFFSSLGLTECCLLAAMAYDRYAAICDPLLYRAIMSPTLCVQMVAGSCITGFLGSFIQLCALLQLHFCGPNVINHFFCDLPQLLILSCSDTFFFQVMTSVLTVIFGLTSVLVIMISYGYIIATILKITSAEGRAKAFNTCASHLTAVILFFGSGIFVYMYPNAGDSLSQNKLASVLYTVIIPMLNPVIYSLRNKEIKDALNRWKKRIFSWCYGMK
# Method in brief: as §1
# O1440 [4] = test system: T10, O1440; remark: listed apart in the source
# T10 sequence (whole entry): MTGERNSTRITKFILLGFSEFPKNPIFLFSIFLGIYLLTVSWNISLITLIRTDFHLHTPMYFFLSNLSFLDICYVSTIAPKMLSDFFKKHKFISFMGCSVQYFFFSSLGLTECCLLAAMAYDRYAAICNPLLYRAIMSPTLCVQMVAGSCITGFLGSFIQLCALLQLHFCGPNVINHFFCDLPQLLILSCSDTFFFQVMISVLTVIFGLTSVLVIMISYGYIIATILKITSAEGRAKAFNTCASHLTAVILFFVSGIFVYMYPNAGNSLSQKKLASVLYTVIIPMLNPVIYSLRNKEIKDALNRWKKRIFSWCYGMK
# Method in brief: as §1
SMILES,odorant receptor agonist call (O13C5),odorant receptor agonist call (O13C7),odorant receptor agonist call (O13C9),odorant receptor agonist call (O13D1 [1]),odorant receptor agonist call (O13D1 [2]),odorant receptor agonist call (O13F1),odorant receptor agonist call (O13G1),odorant receptor agonist call (O13J1),odorant receptor agonist call (O1440 [3]),odorant receptor agonist call (O1440 [4])
CCCCCC(C)=O,inactive,inactive,inactive,inactive,inactive,inactive,inactive,inactive,,
CCCCCC(=O)O,inactive,inactive,inactive,inactive,inactive,inactive,inactive,inactive,,
CC1COCc2cc3c(cc21)C(C)(C)C(C)C3(C)C (stereo not given),active,inactive,active,active,active,active,inactive,inactive,active,active
CC12CCC(CC1)C(C)(C)O2,inactive,inactive,inactive,inactive,inactive,inactive,inactive,inactive,,
CC=Cc1ccc(O)c(OC)c1,inactive,inactive,inactive,inactive,inactive,inactive,inactive,inactive,,
CC(C)=CCCC(C)=CC=O,inactive,inactive,inactive,inactive,inactive,inactive,inactive,inactive,,
c1ccc(Oc2ccccc2)cc1,inactive,inactive,inactive,inactive,inactive,inactive,inactive,inactive,,
CCCCCCCCOC(C)=O,inactive,inactive,inactive,inactive,inactive,inactive,inactive,inactive,,
CCCCCCCOC(C)=O,inactive,inactive,inactive,inactive,inactive,inactive,inactive,inactive,,
O=CCc1ccccc1,inactive,inactive,inactive,inactive,inactive,inactive,inactive,inactive,,
CC(=O)C(C)=O,inactive,inactive,inactive,inactive,inactive,inactive,inactive,inactive,,
O=C1CCCCCCCCCCCCCCO1,inactive,inactive,inactive,inactive,inactive,inactive,inactive,inactive,active,active
CC(C)CC(=O)O,inactive,inactive,inactive,inactive,inactive,inactive,inactive,inactive,,
C=CCSCC=C,inactive,inactive,inactive,inactive,inactive,inactive,inactive,inactive,,
COc1ccccc1O,inactive,inactive,inactive,inactive,inactive,inactive,inactive,inactive,,
O=C1CCCCC1,inactive,inactive,inactive,inactive,inactive,inactive,inactive,inactive,inactive,inactive
CC1=NC(C)SC1C (stereo not given),inactive,inactive,inactive,inactive,inactive,inactive,inactive,inactive,,
CC(=O)OCC=C(C)CCC=C(C)C,inactive,inactive,inactive,inactive,inactive,inactive,inactive,inactive,,
CC(=O)OC1CC2CCC1(C)C2(C)C (stereo not given),inactive,inactive,inactive,inactive,inactive,inactive,inactive,inactive,,
CC12C=CCC1C1CCC3=CC(=O)CCC3(C)C1CC2 (stereo not given),inactive,inactive,inactive,inactive,inactive,inactive,inactive,inactive,,
CC(=O)c1ccccc1,inactive,inactive,inactive,inactive,inactive,inactive,inactive,inactive,,
C=CCc1ccc(OC(C)=O)c(OC)c1,inactive,inactive,inactive,inactive,inactive,inactive,inactive,active,,
COC(=O)c1ccccc1O,inactive,inactive,inactive,inactive,inactive,inactive,inactive,inactive,,
O=C1CCCCCCCCCCCC(=O)OCCO1,inactive,inactive,inactive,inactive,inactive,inactive,inactive,inactive,active,active

# Reprinted at random: 2 entries already listed, in no set order.
SMILES,odorant receptor agonist call (O13C5),odorant receptor agonist call (O13C7),odorant receptor agonist call (O13C9),odorant receptor agonist call (O13D1 [1]),odorant receptor agonist call (O13D1 [2]),odorant receptor agonist call (O13F1),odorant receptor agonist call (O13G1),odorant receptor agonist call (O13J1),odorant receptor agonist call (O1440 [3]),odorant receptor agonist call (O1440 [4])
CC1=NC(C)SC1C (stereo not given),inactive,inactive,inactive,inactive,inactive,inactive,inactive,inactive,,
CC1COCc2cc3c(cc21)C(C)(C)C(C)C3(C)C (stereo not given),active,inactive,active,active,active,active,inactive,inactive,active,active
